The entries are a selection whose mix differs from that of the whole data set. For some assays here: At the low end of the ranking the order means little. The list shows a part of the results. For some assays here: The source does not settle which construct or isoform was used.
Tests used:
Assay in all cases: DAPPL (digital affinity profiling via proximity ligation, sequencing)
Conditions in all cases: 10 mM Tris-HCl pH 7.5, 50 mM NaCl, 1 mM DTT, 4% glycerol, room temperature, 30 min; GST-TFs on glutathione beads, 16-mer random dsDNA library, 0.1% …; high values mean tight binding; double strand, one strand shown; scale: fold enrichment (6-mer frequency, TF over GST control)
[1] = target: T1, GABPA (UniProt Q06546)
T1 sequence: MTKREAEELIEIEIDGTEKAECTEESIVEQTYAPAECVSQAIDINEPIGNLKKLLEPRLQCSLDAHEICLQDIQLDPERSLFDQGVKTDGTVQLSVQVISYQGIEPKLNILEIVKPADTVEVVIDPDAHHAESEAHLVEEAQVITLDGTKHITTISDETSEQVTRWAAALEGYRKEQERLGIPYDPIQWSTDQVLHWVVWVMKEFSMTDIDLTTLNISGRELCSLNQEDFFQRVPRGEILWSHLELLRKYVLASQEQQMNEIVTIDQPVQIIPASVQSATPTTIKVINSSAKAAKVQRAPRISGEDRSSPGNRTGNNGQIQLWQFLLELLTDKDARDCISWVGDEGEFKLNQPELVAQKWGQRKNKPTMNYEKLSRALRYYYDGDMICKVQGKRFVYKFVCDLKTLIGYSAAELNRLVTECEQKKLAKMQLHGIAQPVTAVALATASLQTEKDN

[2] = target: T2, ETS1 (UniProt P14921)
T2 sequence: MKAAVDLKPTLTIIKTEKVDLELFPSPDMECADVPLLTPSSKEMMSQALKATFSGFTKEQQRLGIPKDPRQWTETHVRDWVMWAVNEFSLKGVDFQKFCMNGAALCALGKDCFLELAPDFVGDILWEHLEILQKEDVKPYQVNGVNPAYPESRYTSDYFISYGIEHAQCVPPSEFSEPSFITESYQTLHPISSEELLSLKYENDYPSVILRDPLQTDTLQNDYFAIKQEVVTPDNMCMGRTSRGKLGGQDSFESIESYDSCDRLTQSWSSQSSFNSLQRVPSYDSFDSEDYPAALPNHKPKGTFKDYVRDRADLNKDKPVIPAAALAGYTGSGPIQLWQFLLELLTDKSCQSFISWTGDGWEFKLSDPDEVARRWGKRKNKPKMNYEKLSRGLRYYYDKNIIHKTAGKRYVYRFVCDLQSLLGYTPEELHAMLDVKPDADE

[3] = target: T3, SPDEF (UniProt O95238)
T3 sequence: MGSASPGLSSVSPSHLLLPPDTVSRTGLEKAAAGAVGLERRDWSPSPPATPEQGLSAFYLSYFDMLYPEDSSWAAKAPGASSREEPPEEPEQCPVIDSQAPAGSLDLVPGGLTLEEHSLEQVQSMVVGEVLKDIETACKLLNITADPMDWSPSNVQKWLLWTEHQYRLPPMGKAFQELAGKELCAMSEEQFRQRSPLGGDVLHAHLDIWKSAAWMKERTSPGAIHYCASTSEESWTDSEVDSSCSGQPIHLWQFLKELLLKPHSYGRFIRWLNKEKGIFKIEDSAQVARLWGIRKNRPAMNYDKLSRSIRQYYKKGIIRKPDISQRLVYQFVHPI

| Sequence | binding signal [1] | binding signal [2] | binding signal [3] |
| --- | --- | --- | --- |
| TATTTA | 1.39 | 1.48 | 1.47 |
| GCAACT | 1.19 | 1.27 | – |
| AGTAAC | 0.861 | 0.94 | 0.99 |
| CACACA | 1.14 | 1.17 | – |
| TCGTTG | 0.882 | 1.01 | – |
| CCCGGT | 0.965 | 1.09 | 1.11 |
| AAACTT | 1.31 | 1.31 | – |
| CAATGA | 1.05 | 1.05 | 0.952 |
| TTCTAC | 1.59 | 1.5 | 1.5 |
| GTAGAT | 0.978 | 0.964 | – |
| AGGCTA | 0.948 | 0.901 | 0.94 |
| GAATAG | 0.95 | 0.868 | 1.02 |
| CTGATT | 1.14 | 1.22 | 1.21 |
| CATCAG | 0.977 | 0.936 | 0.925 |
| GCAAGC | 0.99 | 0.86 | 0.821 |
| TCAAGC | 0.978 | 1.1 | 0.939 |
| ATATCT | 1.26 | 1.17 | – |
| GACTCG | 0.921 | 0.866 | 0.754 |
| TGACGC | 1.15 | 1.25 | 1.13 |
| GACTTG | 0.792 | 0.887 | 0.857 |
| AAGGTC | 0.925 | 0.925 | 0.996 |
| GGACTC | 1.07 | 1.06 | 0.956 |

| Sequence | binding signal [1] | binding signal [2] | binding signal [3] |
| --- | --- | --- | --- |
| CCGACA | 1.11 | 1.19 | 1.27 |
| CATCCA | 0.978 | 0.976 | 0.986 |
| TTTAAG | 1.38 | 1.33 | 1.44 |
| CATAAA | 0.99 | 1.05 | 0.944 |
| AGATTA | 0.991 | 1.04 | 1.05 |
| TTTTCT | 1.27 | 1.42 | – |
| ACCCGG | 1.62 | 1.73 | – |
| CCGAAA | 1.33 | 1.28 | – |
| CCGGCG | 0.969 | 0.944 | 0.974 |
| CATTCG | 1.17 | 1.25 | – |
| AGTATA | 0.975 | 0.985 | 0.933 |
| TCATAG | 0.935 | 0.932 | 0.909 |
| AGCATA | 0.936 | 0.898 | 0.926 |
| CCAGAT | 0.864 | 0.874 | 0.929 |
| TACGGC | 1.23 | 1.13 | 1.18 |
| ATCGCG | 0.95 | 1.08 | 0.856 |
| TCGCGA | 0.832 | 0.975 | 0.809 |
| GCCTGT | 0.858 | 1.05 | 0.914 |
| GATTAG | 0.925 | 0.92 | 0.874 |
| GGCGTT | 0.909 | 1.04 | 0.93 |
| CATTAT | 1.06 | 1.18 | 0.969 |
| ATGGGA | 0.952 | 0.919 | 0.918 |

| Sequence | binding signal [1] | binding signal [2] | binding signal [3] |
| --- | --- | --- | --- |
| TCTGCG | 1.27 | 1.29 | 1.21 |
| AGGGCT | 1.05 | 1.09 | 0.958 |
| TGGTCG | 1.08 | 1.02 | 0.962 |
| GCACTG | 1.14 | 1.08 | 0.975 |
| CTTGAG | 0.947 | 0.928 | 0.94 |
| CCACAG | 0.945 | 0.906 | 0.898 |
| AGTTGC | 0.952 | 0.903 | 0.957 |
| GAAGAT | 0.911 | 0.839 | 0.83 |
| TGGCGT | 0.963 | 1.07 | 0.967 |
| TCAAGA | 0.846 | 0.868 | 0.863 |
| GTCCAA | 0.916 | 1 | 0.968 |
| CTAGCG | 1.32 | 1.08 | 1.1 |
| CAGATA | 0.933 | 0.884 | 0.862 |
| CAAAGA | 0.915 | 0.981 | 0.98 |
| AACGGT | 0.922 | 0.91 | 0.892 |
| GTAAGC | 0.958 | 0.908 | 0.92 |
| CCGTTA | 0.981 | 0.995 | 1.04 |
| TGAAGA | 0.994 | 0.885 | 0.99 |
| TGAAGG | 0.848 | 0.848 | 0.959 |
| ACGCGT | 0.976 | 0.961 | 0.855 |
| TCCAGA | 0.862 | 0.885 | 0.877 |
| TCCGAT | 1.17 | 1.23 | 1.34 |

Whole records as entered above.
GTCCAA as listed: binding signal [1] = 0.916; binding signal [2] = 1; binding signal [3] = 0.968
CCACAG as listed: binding signal [1] = 0.945; binding signal [2] = 0.906; binding signal [3] = 0.898
TGGCGT as listed: binding signal [1] = 0.963; binding signal [2] = 1.07; binding signal [3] = 0.967
AGTTGC as listed: binding signal [1] = 0.952; binding signal [2] = 0.903; binding signal [3] = 0.957

The results go on.

| Sequence | binding signal [1] | binding signal [2] | binding signal [3] |
| --- | --- | --- | --- |
| ACAGTT | 0.857 | 0.865 | 0.861 |
| CGAACT | 1.24 | 1.19 | 0.944 |
| AAAGCT | 1.08 | 1.1 | 0.965 |
| CCCCGC | 1.2 | 1.26 | 1.06 |
| AGGCCC | 0.884 | 0.905 | 0.953 |
| GGCTGC | 0.983 | 0.927 | 0.943 |
| ACAAAA | 1.15 | 1.17 | 1.11 |
| GCGGCT | 0.86 | 0.976 | 0.926 |
| AACGGA | 0.955 | 0.991 | 1.23 |
| CCTGCC | 1.25 | 1.32 | 1.31 |
| GTTCGC | 1.03 | 1.03 | 0.954 |
| CCATGG | 0.983 | 0.994 | 0.967 |
| CATTAG | 0.865 | 1.04 | 0.988 |
| GTGGAT | 0.801 | 0.972 | 0.83 |
| GCTGCT | 1.24 | 1.11 | 1.21 |
| GTGATG | 0.986 | 0.983 | 0.855 |
| AGGTGT | 0.81 | 0.944 | 0.805 |
| GTCCGG | 0.876 | 0.85 | 1.18 |
| ACGCAC | 1.04 | 1.07 | 0.912 |
| GGCAAT | 1 | 0.932 | 0.914 |

Source: paper PMC7862700
